Primary screen of a compound library

Sequences of proteins named here, by UniProt entry; tags and fusion partners are left off. Residues count along the entry.
UniProt A4I591, 1-473: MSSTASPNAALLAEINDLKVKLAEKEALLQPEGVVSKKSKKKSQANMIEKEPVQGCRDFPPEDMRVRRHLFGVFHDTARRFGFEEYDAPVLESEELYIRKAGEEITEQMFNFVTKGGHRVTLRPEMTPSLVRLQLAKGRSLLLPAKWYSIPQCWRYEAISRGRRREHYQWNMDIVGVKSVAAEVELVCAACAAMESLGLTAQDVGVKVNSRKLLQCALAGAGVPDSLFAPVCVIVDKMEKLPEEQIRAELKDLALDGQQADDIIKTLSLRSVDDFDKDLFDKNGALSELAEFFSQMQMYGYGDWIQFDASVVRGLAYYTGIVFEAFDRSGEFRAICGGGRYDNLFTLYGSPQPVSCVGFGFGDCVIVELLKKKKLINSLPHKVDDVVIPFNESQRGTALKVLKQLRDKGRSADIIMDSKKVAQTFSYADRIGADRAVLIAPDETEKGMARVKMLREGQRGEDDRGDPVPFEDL

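Histidine-tRNA ligase, Leishmania infantum (UniProt A4I591). Enzyme assay of histidyl-tRNA synthetase; the read-out is not stated. Compounds at 30 µM. The record gives no direction; compounds that gave an IC50 in retests scored well above the rest, so higher reads as stronger inhibition. The assay is labelled LdHisRS but filed under L. infantum. Of about 69,000 compounds tested this way, about 410 (0.6%) reached 50% or more in at least one test.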

Each number is a percent effect as filed. The controls that fix the scale are not given in the record; negative values are as filed. Compounds were drawn at random from those tested, without regard to their results.

{"compound": "Cn1ncc2cnn(CC(O)COCc3ccccc3Cl)c2c1=O", "stereo": "centres undefined", "Percent Effect": 16.67}
{"compound": "CCC(=O)N1CCC2(CC1)CN(C(C)=O)c1ccc(C)cc12", "Percent Effect": -7.895}
{"compound": "COc1ccc(OC)c(C2CCN(C(=O)C3CCN(C(C)C)CC3)C2)c1", "stereo": "centres undefined", "Percent Effect": 18.42}
{"compound": "O=C(CSc1ccc2c(c1)OCCO2)NS(=O)(=O)c1cc(F)ccc1F", "Percent Effect": -6.061}
{"compound": "CSC(C)CCN1CCC(n2cc(C3CCCCC3)nn2)CC1", "stereo": "centres undefined", "Percent Effect": 4.167}
{"compound": "COc1cccc(-c2n[nH]cc2C(=O)NC(C)c2n[nH]c(C)n2)c1", "stereo": "centres undefined", "Percent Effect": 4.762}
{"compound": "CN(C)c1cccc(C2CCCN2CCCN2CCOC2=O)c1", "stereo": "centres undefined", "Percent Effect": 19.84}
{"compound": "O=C([C@@H]1COC[C@H]2CN(c3ccncn3)C[C@H]21)N1CCCC1", "Percent Effect": 19.3}
{"compound": "COCCN1C[C@H]2CC[C@@H]1CN(C(=O)CCc1n[nH]c(C)c1C)C2", "Percent Effect": 13.95}
{"compound": "CC(C)NC(=O)c1nnc2ccc(N3CCOCC3)cc2n1", "Percent Effect": 8.621}
{"compound": "Cc1csc(NC(=O)CN2CCc3c(nc(C4CC4)n3C)C2)n1", "Percent Effect": -3.571}
{"compound": "O=C1C(Nc2nccn3cnnc23)CCN1c1cccc(Cl)c1", "stereo": "centres undefined", "Percent Effect": 17.07}
{"compound": "CCn1cnnc1CNS(=O)(=O)N1CCCC1c1ccco1", "stereo": "centres undefined", "Percent Effect": 25.33}
{"compound": "COC(=O)c1ccc(N2CCN(Cc3csc(C)n3)CC2)nn1", "Percent Effect": 6.25}
{"compound": "CCN(CC)C(CNC(=O)c1cccnc1-n1cncn1)c1ccsc1", "stereo": "centres undefined", "Percent Effect": 14.67}
{"compound": "COCCC1(CO)CCCN(CCCc2ccccc2)C1", "stereo": "centres undefined", "Percent Effect": 1.613}
{"compound": "Cc1cccc(OCC2CCCN(C(=O)CN(C)C3CCNCC3)C2)c1", "stereo": "centres undefined", "Percent Effect": 19.74}
{"compound": "Cc1cccc2c1NC(c1cnc(C3CCC3)s1)NC2=O", "stereo": "centres undefined", "Percent Effect": -2.439}
{"compound": "CCOC(=O)CNC(=O)NCc1cccn1Cc1ccc(F)cc1", "Percent Effect": 10.53}
{"compound": "O=C(c1ccccc1F)N1C[C@H]2CCC[C@@]2(COCc2ccncc2)C1", "Percent Effect": 22.12}
{"compound": "COc1cc(CNC2CCc3nc(C)nn3C2)cc2c1OCCO2", "stereo": "centres undefined", "Percent Effect": 7.576}
{"compound": "Cc1nn(C)cc1CN(C)c1nccc(-c2cn(C)nc2C)n1", "Percent Effect": 19.35}
{"compound": "O=C(NCc1cc2n(n1)CCCNC2)C1(c2ccccc2)CCCCC1", "Percent Effect": 16.44}
{"compound": "Cc1noc(C)c1-c1ccc(C2CCCN2C(=O)c2cnn(C)c2)nc1", "stereo": "centres undefined", "Percent Effect": 30.53}
{"compound": "CN1CCCN(c2ncnc(N3CCOCC3)c2N)CC1", "Percent Effect": 15.84}
{"compound": "Cc1cc(N(C)C)nc(N2CCn3c(nnc3C(C)C)C2)n1", "Percent Effect": 1.55}
{"compound": "COc1ccc(C)nc1NC(=O)CCc1c(C)nn(C)c1C", "Percent Effect": 11.4}
{"compound": "O=C(NS(=O)(=O)c1cc(Cl)sc1Cl)c1cccc2c1OCCO2", "Percent Effect": -7.692}
{"compound": "CC(=O)NC(C)c1ccc(OCC2CC2)c(F)c1", "stereo": "centres undefined", "Percent Effect": 11.43}
{"compound": "Cc1ccc(-c2nc(CNC(C)CCO)[nH]c2-c2ccccn2)cc1", "stereo": "centres undefined", "Percent Effect": 0}
{"compound": "Cc1cc(CN2CCOCS2(=O)=O)ccc1F", "Percent Effect": 13.46}
{"compound": "O=C1[C@H]2CN(Cc3ccoc3)C[C@H]2CN1Cc1cccnc1", "Percent Effect": 20.59}
{"compound": "Cc1ccc2c(c1)SCC(=O)N2CC(=O)N1CCCC1c1cc(C)on1", "stereo": "centres undefined", "Percent Effect": 0}
{"compound": "COc1ccc(-c2nnsc2C(=O)N2CCC(C(N)=O)CC2)cc1", "Percent Effect": 5.495}
{"compound": "CC(C)C1CN(S(=O)(=O)N(C)C)CCCN1Cc1ccc(F)cc1", "stereo": "centres undefined", "Percent Effect": 14.47}
{"compound": "Cc1cc(C)n(CCNC(=O)c2cc(C3CC3)n[nH]2)n1", "Percent Effect": 8.966}
{"compound": "CCN(CC1COc2ccccc2O1)C(=O)C1=NN(C)C(=O)CC1", "stereo": "centres undefined", "Percent Effect": 15.38}
{"compound": "COc1cc(C2Nc3cc(Cl)ccc3C3=NCCN32)ccc1O", "stereo": "centres undefined", "Percent Effect": 6}
{"compound": "Cc1ccccc1N1CCN(C(=O)c2cnn(C(C)C)c2)C(C)C1", "stereo": "centres undefined", "Percent Effect": 22.22}
{"compound": "CC(C)c1cc(C(=O)N2CCC3(CCc4ccccc4C(=O)N3)C2)on1", "stereo": "centres undefined", "Percent Effect": 11.51}
{"compound": "Cn1nnnc1SCCNC(=O)C1CCN(C(=O)C2CCC2)CC1", "Percent Effect": 10.96}
{"compound": "Cc1cc(C)nc(Nc2nccnc2C2CCCN(CCO)C2)n1", "stereo": "centres undefined", "Percent Effect": 9.396}
{"compound": "CN(CCN1CCN(c2ccccc2)CC1)C(=O)Nc1ccccn1", "Percent Effect": 12.33}
{"compound": "CC1CCN(C(=O)C2CCN(c3ccc(Cl)cc3C#N)CC2)CC1", "Percent Effect": 25.81}
{"compound": "CCC1CN(CC(=O)NCCC#N)CCO1", "stereo": "centres undefined", "Percent Effect": 3.175}
{"compound": "CC(C)n1ncc2cc(NC(=O)N3CCSCC3)cnc21", "Percent Effect": 14.55}
{"compound": "CCc1nc(C2CCCN2C(=O)c2ccc3c(c2)nc(C)n3C)no1", "stereo": "centres undefined", "Percent Effect": -1.351}
{"compound": "COC(=O)[C@@H](Nc1nc(C2CCCC2)nc2c1cnn2C)[C@@H](C)O", "Percent Effect": 8.511}
{"compound": "CC(=O)Nc1ncc(S(=O)(=O)Nc2ccc3c(c2)OCCO3)s1", "Percent Effect": 32.76}
{"compound": "CCN1Cc2c(C(=O)NC(C)C)ncn2-c2ccccc2S1(=O)=O", "Percent Effect": -2.941}
{"compound": "CNC(=O)c1ccc(=O)n(Cc2csc(C(C)(C)C)n2)c1", "Percent Effect": 28.57}
{"compound": "CC(C)OCCS(=O)(=O)c1ccccc1C#N", "Percent Effect": 15.97}
{"compound": "CN(CCc1ccccn1)C(=O)CCC1CCCN(c2ncccn2)C1", "stereo": "centres undefined", "Percent Effect": 0.885}
{"compound": "CC(NC(=O)NCCNc1cnccn1)c1cccs1", "stereo": "centres undefined", "Percent Effect": 27.4}
{"compound": "Cc1ccoc1C(=O)N1C[C@@H]2[C@@H](C1)OCC(=O)N2Cc1cccnc1", "Percent Effect": -51.46}
{"compound": "CCOc1ccc(C2SCC(=O)Nc3c2c(=O)[nH]n3C(CC)CC)cc1", "stereo": "centres undefined", "Percent Effect": 11.03}
{"compound": "Cc1ccc(-c2cc(C(=O)NCCN3CCCS3(=O)=O)[nH]n2)o1", "Percent Effect": 11.01}
{"compound": "CCN1CC2(CC1=O)CN(C(C)=O)CCN(C(=O)NC)C2", "stereo": "centres undefined", "Percent Effect": 11.54}
{"compound": "O=C(NCCSc1cnn[nH]1)c1c[nH]nc1C1CCCCC1", "Percent Effect": 18.33}

For reference, 5 entries once more:

* COc1ccc(C)nc1NC(=O)CCc1c(C)nn(C)c1C | 11.4%
* COc1cc(C2Nc3cc(Cl)ccc3C3=NCCN32)ccc1O (centres undefined) | 6%
* CN1CCCN(c2ncnc(N3CCOCC3)c2N)CC1 | 15.84%
* Cc1csc(NC(=O)CN2CCc3c(nc(C4CC4)n3C)C2)n1 | -3.571%
* O=C(NS(=O)(=O)c1cc(Cl)sc1Cl)c1cccc2c1OCCO2 | -7.692%

The values are deposited in ChEMBL (CHEMBL3988442, “University of Dundee, Small-Polar-MMV Screening Library” (2021)).